The record followed here is PMC9116668.

The chains behind the UniProt entries cited, without tags or fusion partners.
UniProt O18640: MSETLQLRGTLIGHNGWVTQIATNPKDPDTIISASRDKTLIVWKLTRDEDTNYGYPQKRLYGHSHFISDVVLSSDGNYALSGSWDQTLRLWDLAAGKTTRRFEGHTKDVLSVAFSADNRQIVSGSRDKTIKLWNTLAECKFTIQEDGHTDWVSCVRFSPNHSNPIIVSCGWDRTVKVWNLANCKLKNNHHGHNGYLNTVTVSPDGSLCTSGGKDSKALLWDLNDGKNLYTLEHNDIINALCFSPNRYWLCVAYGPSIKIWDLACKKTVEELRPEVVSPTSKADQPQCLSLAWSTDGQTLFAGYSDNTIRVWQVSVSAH

Results are given in words; binding and its absence hold for the method and conditions named. In cells and extracts the contact can be indirect. Here binding means that the protein was enriched with, or labelled near, the bait; the list need not be complete. Sequences can lack the tags named with a protein.

This assay deals with T1, V5-tagged Diedel (wild type, Die^RGD-V5) (Drosophila melanogaster) (UniProt Q9VAK8).
T1 sequence: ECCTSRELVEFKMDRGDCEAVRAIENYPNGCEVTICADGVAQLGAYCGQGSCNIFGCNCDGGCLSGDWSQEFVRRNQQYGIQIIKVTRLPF
Kind of assay: affinity purification with mass spectrometry; S2R+ cells treated with UV (100 mJ/cm^2), cultured 5 hours with conditioned media containing Die-V5-His (or Mock), crosslinked with 4% paraformaldehyde 5 minutes on ice, lysed with RIPA buffer, pulled down on HisPur Ni-NTA spin columns; excised gel bands or the total elution fraction analysed by mass spectrometry.

For Rack1 (from UniProt O18640 1-318), the binding result is “binds”.

B1: Inositol-3-phosphate synthase (Inos) (enzyme, UniProt O97477 1-565)
chain: MKPTNNSTLEVISPKVQVDDEFITTDYDYQTSHVKRTADGQLQVHPQTTSLKIRTGRHVPKLGVMLVGWGGNNGSTLTAALEANRRQLKWRKRTGVQEANWYGSITQASTVFIGSDEDGGDVYVPMKELLPMVEPDNIIVDGWDISGLHLGDAMRRAEVLDVALQDQIYDQLAQLRPRPSIYDPDFIAANQSDRADNVIRGTRLEQYEQIRKDIRDFRERSGVDSVIVLWTANTERFADVQPGLNTTSQELIASLEANHSEVSPSTIFAMASIAEGCTYINGSPQNTFVPGLIQLAEEKNVFIAGDDFKSGQTKIKSVLVDFLVGAGIKPVSIASYNHLGNNDGKNLSAPQQFRSKEISKSNVVDDMVASNRLLYGPDEHPDHVVVIKYVPYVGDSKRAMDEYTSEIMMGGHNTLVIHNTCEDSLLATPLILDLVILGELSTRIQLRNAEKESAPWVPFKPVLSLLSYLCKAPLVPQGSQVVNSLFRQRAAIENILRGCIGLPPISHMTLEQRFDFSTITNEPPLKRVKILGQPCSVESVTNGKKLHANGHSNGSAKLATNGNGH
With B1, the binding result is recorded as “binds”.

B2: CaBP1 (protein, UniProt Q9V438 20-433)
chain: FYSPSDGVVELTPSNFDREVLKDDAIWVVEFYAPWCGHCQSLVPEYKKLAKALKGVVKVGSVNADADSTLSGQFGVRGFPTIKIFGANKKSPTDYNGQRTAKAIAEAALAEVKKKVQGVLGGGGGSSSGGSGSSSGDDVIELTEDNFDKLVLNSDDIWLVEFFAPWCGHCKNLAPEWAKAAKELKGKVKLGALDATAHQSKAAEYNVRGYPTIKFFPAGSKRASDAQEYDGGRTASDIVSWASDKHVANVPAPELIEIINESTFETACEGKPLCVVSVLPHILDCDAKCRNKFLDTLRTLGEKFKQKQWGWAWAEGGQQLALEESLEVGGFGYPAMAVVNFKKMKFSVLKGSFSKDGINEFLRDISYGRGHTAPVRGAKKPAIVSVDPWDGKDGQLPTEEDIDLSDIDLDKDEL
Take B2: the binding entry is given as “binds”.
